The text below walks through data of PubChem BioAssay AID1487 (National Center for Advancing Translational Sciences (NCATS), 2009).

The list shows a part of the results. Shown are side measurements of this screen, not its main read-out; they come without a call. Most of these compounds were active or inconclusive in the main read-out, so they are no random draw. Potencies come from curve fits of mixed quality, noted in brackets.

The nature of this test: qHTS Assay for Modulators of Lamin A Splicing. The conditions noted are these: HeLa LMNA splicing GFP/RFP minigene ratio, 48 h. Put shortly: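 Read-out is the ratio of GFP to DsRed2 object intensity, acquired by 488 nm laser-scanning cytometry on HeLa lamin A-EGFP minigene reporter cells. Compound incubation 48 hrs at 37 °C in Opti-MEM with 2% FBS; DMSO 0.5% final.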
On the technique in general: Quantitative high-throughput screening tests each substance at several concentrations.

The mark [1] stands for this setting: measured here: GFP splicing reporter channel.
The mark [2] stands for this setting: measured here: RFP viability control channel.

For `CCN(CC)C(=O)Cn1c(SCC(=O)Nc2ccc(C)c(C)c2)nc2ccccc21`, the concentration at half-maximal activity (AC50) under setting [1] is 0.178 µM [rising, full curve, poor fit].
As to `CCCn1c2ccccc2c2cnn(CC(=O)N(CCCOC(C)C)Cc3ccco3)c(=O)c21`, the AC50 was 12.6 µM [falling, partial curve] under setting [1] and 20 µM [falling, single point] under setting [2].
On to `CCOC(=O)C1=C(Cc2ccc(Cl)cc2)C(=O)c2ccccc2C1=O`, for which the AC50 is 10 µM [rising, partial curve, poor fit] under setting [1] and 12.6 µM [rising, single point] under setting [2].
Consider `O=S(=O)(c1cccc(NC(=S)N2CCN(c3ccccc3F)CC2)c1)C(F)F`, for which the AC50 under setting [2] is 10 µM [rising, partial curve, poor fit].
For `Brc1ccc2nc(-c3ccncc3)c(NC3CCCC3)n2c1`, under setting [1], the AC50 is 5.62 µM [falling, partial curve].
For the molecule `Cc1ccc(NS(=O)(=O)c2ccc(NC(=O)c3cccs3)cc2)c(C)c1`, the AC50 is 11.2 µM [rising, partial curve] under setting [1] and 14.1 µM [rising, partial curve] under setting [2].
Consider `COc1ccc(-c2cnnc(N/N=C/c3c(C)nn(-c4ccccc4)c3Cl)n2)cc1`, for which the concentration at half-maximal activity (AC50) under setting [1] is 5.62 µM [falling, single point].
Regarding `CCCOc1ccc(/C=C/C(=O)Nc2ccc([N+](=O)[O-])cc2)cc1`, the AC50 by setting is: under setting [1], 6.31 µM [rising, partial curve]; under setting [2], 6.31 µM [rising, partial curve].
For `CCCCc1c(C)nn(-c2nnc3c4ccccc4n(C)c3n2)c1C`, the half-maximal activity concentration (AC50) by setting is: under setting [1], 35.5 µM [rising, single point]; under setting [2], 17.8 µM [rising, single point].
On to `COc1ccc(C(=O)c2sc3nc(C)cc(-c4cccs4)c3c2N)cc1`, for which the AC50 under setting [2] is 4.47 µM [rising, partial curve, poor fit].
Turning to `COCCn1c(C)cc(C(=O)CSc2nc3ccccc3s2)c1C`, the AC50 by setting is: under setting [1], 11.2 µM [rising, single point]; under setting [2], 11.2 µM [rising, partial curve].
For the molecule `Cc1ccccc1-c1ccc2ncnc(N(C)Cc3ccco3)c2c1`, the half-maximal activity concentration (AC50) under setting [2] is 15.8 µM [falling, single point].
As to `Cc1ccc(-c2cnco2)cc1`, the AC50 was 4.47 µM [rising, full curve, poor fit] under setting [1] and 7.94 µM [rising, partial curve, poor fit] under setting [2].
Consider `CC(=O)OC(C(=O)NC1CCCCC1)c1ccc(Cl)c(Cl)c1` (stereo unspecified), for which the AC50 under setting [2] was 0.447 µM [falling, full curve].
Consider `Cc1cc(Cl)c(S(=O)(=O)N2CCCC2)cc1OCC(=O)NC1CCCCC1`, for which the concentration at half-maximal activity (AC50) runs as follows: under setting [1], 20 µM [rising, partial curve, poor fit]; under setting [2], 11.2 µM [rising, partial curve].
In the case of `Cn1nc(CC(=O)Nc2cccc3ncccc23)c2ccccc2c1=O`, under setting [2], the AC50 is 7.08 µM [rising, partial curve].
The same measure, in the same setting: the same measure for `O=C(C1CCCO1)N1CCN(C(=S)Nc2ccc(Cl)cc2)CC1` (stereo unspecified): 14.1 µM [rising, single point].
Consider `CCOc1cccc(OCCn2cnc3ccccc3c2=O)c1`, for which the AC50 by setting is: under setting [1], 31.6 µM [rising, single point]; under setting [2], 35.5 µM [rising, single point].
For `CCCC(=O)c1c(NC)cc(C)oc1=O`, the AC50 under setting [2] was 0.562 µM [falling, full curve, poor fit].
Turning to `COc1ccc(Cc2nnc(NC(=O)c3c(-c4ccccc4)noc3C)s2)cc1`, the concentration at half-maximal activity (AC50) under setting [2] was 15.8 µM [rising, single point].
Turning to `CCCCOc1ccc(C2NC(=O)NC(C)=C2C(C)=O)cc1OCC` (stereo unspecified), under setting [1], the AC50 is 0.0355 µM [rising, full curve, poor fit].
Same read-out and setting: the same measure for `C=CCOc1ccc(C=Nc2cccc(Cl)c2)c(O)c1`: 0.1 µM [falling, full curve, poor fit].
For `COc1ccc(Br)cc1CNc1ccc2[nH]c(=O)[nH]c2c1`, the concentration at half-maximal activity (AC50) under setting [2] was 6.31 µM [falling, single point].
For `CCOC(=O)CNC(=O)c1ccc(C#CC2(O)CCCCC2)cc1`, the AC50 under setting [1] is 35.5 µM [rising, single point].
For `CCOC(=O)c1c(N)sc(C(O)(C(F)(F)F)C(F)(F)F)c1-c1ccc(OC)cc1OC`, under setting [2], the concentration at half-maximal activity (AC50) was 12.6 µM [rising, single point].
Take `CS(=O)(=O)c1ccc2nc(NC(=O)c3ccc(N4CCCC4=O)cc3)sc2c1`: the AC50 under setting [1] was 35.5 µM [falling, single point] and the concentration at half-maximal activity (AC50) under setting [2] is 11.2 µM [falling, partial curve, poor fit].
In the case of `CCOc1ccc(N/C(C)=C\C(=O)c2ccc3c(c2)OCCO3)cc1`, the AC50 under setting [2] is 25.1 µM [rising, single point].
Turning to `Cc1ccc(S(=O)(=O)N2CCN(Cc3nc4ccccc4n3C)CC2)cc1`, the AC50 reads like this: under setting [1], 1 µM [rising, partial curve]; under setting [2], 6.31 µM [rising, full curve].
On to `CCN(CC)C(=O)Oc1cc(=O)n2c3c(cccc13)CCC2`, for which the AC50 under setting [1] is 14.1 µM [rising, single point] and the AC50 under setting [2] was 1.41 µM [rising, partial curve].
On to `CC1(C)C(c2ccccc2)=[N+]([O-])C2(CCCCC2=O)N1O` (stereo unspecified), for which, under setting [1], the concentration at half-maximal activity (AC50) was 3.16 µM [falling, single point].
In the case of `O=C(NC1=NCCS1)c1cc(-c2ccc(F)cc2)nc2ccccc12`, under setting [2], the AC50 is 8.91 µM [rising, partial curve, poor fit].
The same measure, in the same setting: for `CCn1cc(NC(=O)CCl)c(C)n1` the value was 22.4 µM [falling, partial curve, poor fit].
`Cc1nn(CCC#N)c2[nH]c(=O)cc(C(F)(F)F)c12`: the half-maximal activity concentration (AC50) under setting [1] is 0.398 µM [falling, partial curve, poor fit].
For the molecule `CCCCCn1c(CCCNC(=O)CC)nc2ccccc21`, the AC50 under setting [2] is 0.126 µM [rising, full curve, poor fit].
Regarding `COc1ccc(C(CC(=O)Nc2ccc(F)cc2)c2ccccc2)cc1` (stereo unspecified), the half-maximal activity concentration (AC50) by setting is: under setting [1], 14.1 µM [falling, single point]; under setting [2], 14.1 µM [falling, single point].
`Cc1ccc(S(=O)(=O)NCCSCc2ccco2)cc1`: the AC50 under setting [1] is 1.26 µM [rising, single point].
Consider `COC(=O)C(=C/C(C)=C/c1cccnc1)C(=O)OC`, for which, under setting [2], the AC50 is 35.5 µM [rising, single point].
For `COc1ccc(N(CC(=O)NC2CCCC2)C(=O)Cn2nnc(-c3ccc(OC)c(OC)c3)n2)cc1`, the AC50 reads like this: under setting [1], 0.282 µM [falling, full curve, poor fit]; under setting [2], 0.0708 µM [falling, full curve, poor fit].
`CN1C(=O)NC(c2ccc(O)cc2)C2=C1CN(c1cccc3ccccc13)C2=O` (stereo unspecified): the half-maximal activity concentration (AC50) under setting [2] is 0.00501 µM [falling, full curve, poor fit].
The same measure, in the same setting: the same measure for `COc1cccc(S(=O)(=O)NCc2ccc(C(=O)Nc3cccc(Cl)c3)cc2)c1`: 17.8 µM [rising, single point].
For the molecule `Cc1ccccc1N1C(N)=NC(N)=NC1(C)C`, the half-maximal activity concentration (AC50) under setting [1] is 5.01 µM [falling, partial curve].
Take `CCOc1cc(C(=O)Nc2cc(C)ccn2)cc(OCC)c1OCC`: the AC50 is, setting by setting: under setting [1], 14.1 µM [rising, partial curve]; under setting [2], 11.2 µM [rising, partial curve].
Consider `CC(C)(C)OC(=O)NCC(=O)Oc1cc2oc(=O)cc(-c3ccccc3)c2cc1Cl`, for which the AC50 under setting [2] was 12.6 µM [rising, partial curve].
On to `O=C(NCc1ccncc1)/C(=C\c1ccc(F)cc1)NC(=O)c1ccccc1`, for which the AC50 under setting [2] is 22.4 µM [rising, single point].
Consider `Nc1nc2ccccc2n1/N=C/c1ccc(-c2ccccc2)o1`, for which the AC50 under setting [1] is 20 µM [rising, partial curve, poor fit] and the half-maximal activity concentration (AC50) under setting [2] was 12.6 µM [rising, partial curve].
For the molecule `O=C(Nc1ccc(N2CCN(C(=O)c3ccccc3)CC2)c(Cl)c1)c1ccco1`, the AC50 under setting [2] is 12.6 µM [rising, single point].
Still for that read-out and setting: for `COc1nc(N(C)S(=O)(=O)c2ccc(C)cc2)nc(C)c1Cl` the value was 11.2 µM [rising, partial curve]; for `Nn1c(SCc2ccc(Br)cc2)nnc1-c1ccccn1`, 0.00501 µM [falling, full curve, poor fit]; for `Cc1ccc(N(CC(=O)NCc2ccc(F)cc2)C(=O)c2csnn2)c(C)c1`, 0.0398 µM [rising, full curve, poor fit].
On to `Cc1ccc(Nc2nnc(SCC(=O)Nc3cccc(S(=O)(=O)NC4=NCCCCC4)c3)s2)c(C)c1`, for which the half-maximal activity concentration (AC50) under setting [1] was 10 µM [rising, single point].
`CC(C)(C)c1ccc(C(=O)NCCn2c(N)c(C#N)c3nc4ccccc4nc32)cc1`: the AC50 runs as follows: under setting [1], 7.08 µM [rising, partial curve]; under setting [2], 8.91 µM [rising, partial curve].
As for `COc1ccc(Nc2nc(N)nc(CSC(=S)N3CCN(c4ccccc4)CC3)n2)cc1`, the AC50 under setting [2] was 25.1 µM [rising, single point].
Same read-out and setting: the same measure for `O=C(CCN1CCC(c2ccccc2)C1)c1cccs1` (stereo unspecified): 35.5 µM [rising, single point]; for `O=C(Cn1c(C(F)(F)F)nc2ccccc21)Oc1cccc(C(F)(F)F)c1`: 0.562 µM [falling, full curve, poor fit].
Take `O=C1CCn2nc(-c3ccc(Cl)cc3)cc2N1`: the AC50 under setting [1] is 3.16 µM [falling, full curve] and the AC50 under setting [2] was 6.31 µM [falling, full curve].
In the case of `CSc1cnc2c(N)nc(N(C)C)nc2n1`, the AC50 under setting [2] was 35.5 µM [rising, single point].
Still for that read-out and setting: for `CCN(CC)S(=O)(=O)c1ccc(OC)c(NC(=S)Nc2cccc(C)c2C)c1` the value was 22.4 µM [rising, partial curve, poor fit].
The same measure, in the same setting: the same measure for `Fc1ccc2c(c1)C(c1cccnc1)=NNC(c1cccs1)=N2`: 31.6 µM [rising, single point].

Usually AC50 stands for the midpoint of the concentration-response curve, whichever way the signal moves.
